Source: paper PMC11876601 (Molecular Systems Biology, 2025)

Tests used:
Test in all cases: Drug combination viability screen (ATPlite, 72 h)
Format in all cases: cell-based, human
PANC-1 cells = test system: PANC-1 cells
Description: (§1) Cell viability was assessed by measuring ATP levels to indicate metabolic activity.
(§2) Afterward, small amounts were transferred to 384-well intermediate plates (Greiner Bio-One GmbH, Germany). […] For drug combination screening, 1000 to 5000 cells were seeded into 384-well plates (CulturPlate™, Perkin Elmer, MA, USA) using a Multidrop™ Combi Reagent Dispenser (Thermo Scientific, MA, USA) in 50 µl medium per well 24 h prior to drug treatment (seeding densities see Appendix Table S1). […] The final DMSO concentration in each well was 0.2%. […] Eight wells per plate without library drug served as negative controls, and sixteen wells per plate containing 5 µM Staurosporine served as positive controls. Control plates not containing any drug were used to correct for incubation effects, and data quality was assessed by calculation of Z-prime of positive and negative controls according to1 Z-prime=1−3SDpos+3SDneg/[…] where SD is the standard deviation. […] Dose–response curves from the experimental and hypothetical data were compared, and shifts in AUC were used to describe combination effects (AUC∆ = AUChypothetical − AUCexperimental). […] Only combinations with R^2 > 0.8 in both conditions were considered in the synergy analysis.

AsPC-1 cells = test system: AsPC-1 cells
Description: as §1, §2

[1] = test system: HPDE (immortalized pancreatic duct cell line); conditions: combination with GEM; sentence removed from manuscript, quoted in peer review file
Description: as §1, §2

Capan-1 cells = test system: Capan-1 cells
Description: as §1, §2

MiaPaCa-2 cells = test system: MiaPaCa-2 cells
Description: as §1, §2

PaTu-8988-T cells = test system: PaTu-8988-T cells
Description: as §1, §2

Structure (SMILES): C[C@@H]1COCCN1c1cc(-c2ccnn2C)c2ccnc(-c3ccn[nH]3)c2n1 [Elimusertib]
- AUC∆_GEM high (PANC-1 cells): 18.66%
- AUC∆_GEM low (PANC-1 cells): 7.17%
- AUC∆_sum (PANC-1 cells): 25.83%
- AUC∆_sum_greater10 (PANC-1 cells): TRUE
- any_comb_AUC_lower80 (PANC-1 cells): TRUE
- AUC∆_GEM high (AsPC-1 cells): 12.17%
- AUC∆_GEM low (AsPC-1 cells): 11.34%
- AUC∆_sum (AsPC-1 cells): 23.51%
- AUC∆_sum_greater10 (AsPC-1 cells): TRUE
- any_comb_AUC_lower80 (AsPC-1 cells): TRUE
- ΣAUC∆ [1]: 15%
- AUC∆_GEM high (Capan-1 cells): 16.93%
- AUC∆_GEM low (Capan-1 cells): 6.09%
- AUC∆_sum (Capan-1 cells): 23.02%
- AUC∆_sum_greater10 (Capan-1 cells): TRUE
- any_comb_AUC_lower80 (Capan-1 cells): TRUE
- AUC∆_GEM high (MiaPaCa-2 cells): 39.45%
- AUC∆_GEM low (MiaPaCa-2 cells): 5.93%
- AUC∆_sum (MiaPaCa-2 cells): 45.38%
- AUC∆_sum_greater10 (MiaPaCa-2 cells): TRUE
- any_comb_AUC_lower80 (MiaPaCa-2 cells): TRUE
- AUC∆_GEM high (PaTu-8988-T cells): 37.89%
- AUC∆_GEM low (PaTu-8988-T cells): 22.59%
- AUC∆_sum (PaTu-8988-T cells): 60.47%
- AUC∆_sum_greater10 (PaTu-8988-T cells): TRUE
- any_comb_AUC_lower80 (PaTu-8988-T cells): TRUE
